Common to all, as to test: co-IP; HEK293T cells co-transfected with GFP-tagged DEP domain of Dvl2 and HA-tagged ligases or HA-WWP2 truncations; α-GFP IP with GFP-Trap agarose beads, 1 h at 4°C; Western blot
On the technique in general: A western blot detects proteins with antibodies after separation by electrophoresis.

Chains of the proteins cited; added tags and fusions are not shown. Lines headed by an entry give the natural chain unless they say otherwise; changes in a name come on top. A line that says so, or that is headed by a name, gives the form on record, which may keep a tag or linker. Residues count along the entry.
HA-tagged C2 domain of WWP2 (C2-only, 1-143) (O00308, residues 1-143): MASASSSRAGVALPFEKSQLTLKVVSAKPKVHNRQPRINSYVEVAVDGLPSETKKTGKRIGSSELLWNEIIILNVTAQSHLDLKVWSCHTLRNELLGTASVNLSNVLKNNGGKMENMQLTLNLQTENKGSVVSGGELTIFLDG
HA-WWP2 with residues 1-300 deleted (N-terminally truncated WWP2) (O00308, residues 301-870): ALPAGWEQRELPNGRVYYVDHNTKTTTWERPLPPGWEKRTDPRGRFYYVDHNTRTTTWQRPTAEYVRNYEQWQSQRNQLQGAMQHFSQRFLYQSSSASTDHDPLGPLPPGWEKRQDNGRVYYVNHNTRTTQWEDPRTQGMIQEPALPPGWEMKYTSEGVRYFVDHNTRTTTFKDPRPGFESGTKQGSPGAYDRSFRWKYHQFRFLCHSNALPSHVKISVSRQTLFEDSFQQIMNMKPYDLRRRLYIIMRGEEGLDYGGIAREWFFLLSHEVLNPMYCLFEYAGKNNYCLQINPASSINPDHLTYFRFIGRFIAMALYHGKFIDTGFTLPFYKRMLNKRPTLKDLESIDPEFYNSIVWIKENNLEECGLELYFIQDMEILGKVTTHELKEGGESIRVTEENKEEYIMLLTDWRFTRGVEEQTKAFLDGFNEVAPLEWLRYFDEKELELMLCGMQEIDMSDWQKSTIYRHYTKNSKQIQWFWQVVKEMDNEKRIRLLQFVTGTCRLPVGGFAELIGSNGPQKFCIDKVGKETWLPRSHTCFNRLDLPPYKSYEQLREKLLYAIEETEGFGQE

The target of assay [1] is T1, DEP-GFP (minimal DEP domain of Dvl2, 414-506, tagged with green fluorescent protein) (human) (UniProt O14641).
T1 sequence: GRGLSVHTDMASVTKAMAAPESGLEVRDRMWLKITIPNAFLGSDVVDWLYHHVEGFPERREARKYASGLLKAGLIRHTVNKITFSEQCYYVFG

The target in assay [2] is T2, DEP-GFP D460K (human) (UniProt O14641).
T2 sequence: T1 sequence with D47K

In assay [3] the target is T3, DEP-GFP K446M (human) (UniProt O14641).
T3 sequence: T1 sequence with K33M

Changes are numbered by the printed parent chain. These are yes or no findings as the source states them, for the method shown. In cells and extracts the contact can be indirect. Some results given as binding are weak or reduced against the parent protein; the word gives no strength. Tags and fused reporters may be left off the sequences shown.

For “HA-WWP2 with residues 1-300 deleted (N-terminally truncated WWP2) (from UniProt O00308 301-870) (domain or fragment)”, the binding result in assay [1] is listed as “no binding”.

In the case of “HA-tagged C2 domain of WWP2 (C2-only, 1-143) (from UniProt O00308 1-143) (domain or fragment)”, the binding result in assay [1] is “binds”; in assay [2], “no binding”; in assay [3] it was “binds”.
